Results published in publication PMC10371024.
Results are given in words; binding and its absence hold for the method and conditions named. For part of these data: Binding seen in cells or lysates may run through a third protein. Some binding calls cover weakened binding; strength is not graded here.

What was measured:
Conditions in all cases: remark: other sources report otherwise
[1] = molecular target: T1, Fas associated via death domain (FADD) (mouse (endogenous in MDFs and BMDMs)), Q61160; assay: co-IP; FADD immunoprecipitated from pooled Superose 6 fractions 17 to 21 of lysates of WT cells treated with TBE; immunoblotting (fig. S5A)
T1 chain: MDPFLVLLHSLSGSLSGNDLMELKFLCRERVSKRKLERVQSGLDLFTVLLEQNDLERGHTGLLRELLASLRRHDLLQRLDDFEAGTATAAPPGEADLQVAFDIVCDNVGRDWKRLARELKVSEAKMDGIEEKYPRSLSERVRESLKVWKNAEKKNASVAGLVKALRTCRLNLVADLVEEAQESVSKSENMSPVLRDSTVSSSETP

[2] = molecular target: T1, Fas associated via death domain (FADD) …; assay: SEC; lysates of Cflip^WT and Cflip^D377A MDFs treated with TNF, Smac mimetic and emricasan for 4 hours, separated on a Superose 6 column; fractions immunoblotted; fractions 17 to 21, apparent mass ~2 MDa
[3] = molecular target: T1, Fas associated via death domain (FADD) …; assay: co-IP; FADD-specific antibody on protein G Sepharose; lysates of WT and Cflip^D377A MDFs treated with TNF and emricasan and of BMDMs treated with TNF, birinapant and emricasan; 1% Triton X-100 lysis buffer, 4 hours at 4°C; immunoblotting

Measured: binding

B1: RIPK3, Q9QZL0 1-486 (protein)
chain: MSSVKLWPTGASAVPLVSREELKKLEFVGKGGFGVVFRAHHRTWNHDVAVKIVNSKKISWEVKAMVNLRNENVLLLLGVTEDLQWDFVSGQALVTRFMENGSLAGLLQPECPRPWPLLCRLLQEVVLGMCYLHSLNPPLLHRDLKPSNILLDPELHAKLADFGLSTFQGGSQSGSGSGSGSRDSGGTLAYLDPELLFDVNLKASKASDVYSFGILVWAVLAGREAELVDKTSLIRETVCDRQSRPPLTELPPGSPETPGLEKLKELMIHCWGSQSENRPSFQDCEPKTNEVYNLVKDKVDAAVSEVKHYLSQHRSSGRNLSAREPSQRGTEMDCPRETMVSKMLDRLHLEEPSGPVPGKCPERQAQDTSVGPATPARTSSDPVAGTPQIPHTLPFRGTTPGPVFTETPGPHPQRNQGDGRHGTPWYPWTPPNPMTGPPALVFNNCSEVQIGNYNSLVAPPRTTASSSAKYDQAQFGRGRGWQPFHK
binds: all assays above
